The list shows a part of the results. Values are raw readings; no control value is given beside them.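 Primary screen: polymyxin B was added at a level permeabilizing Salmonella outer membranes while sparing inner membranes. DMSO wells, both with and without polymyxin B, established maximum growth. Plate-to-plate variation meant each plate was ranked on its own, and the lowest-OD600 compounds were selected as hits.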
System: Salmonella enterica serovar Typhimurium SL1344
Assay: bacterial growth OD600 after 18 h with compound and polymyxin B; higher = more bacterial growth (less inhibition)
Conditions: 50 µM, Mueller-Hinton broth

SMILES | bacterial growth OD600 (polymyxin B 1 µg/mL) | bacterial growth OD600 (polymyxin B 0.75 µg/mL)
Cc1cc(CNC(=O)CCN2CCCO2)c2[nH]c(C)c(C)c2c1 | 0.902 | –
COC(=O)CCCC(=O)N1CCCC(CCc2cccc(F)c2)C1 (centres undefined) | – | 0.625
O=C(NCC1CCCCC1)c1cn(C2CC2)cc(C(=O)N2CCN(C3CCCC3)CC2)c1=O | – | 0.897
COCC(=O)Nc1cc(C(=O)N(C)Cc2cc(C)no2)cc2ncn(CCc3ccccc3)c12 | – | 0.716
CC(C)(C)NC(=O)NCc1cccnc1Oc1ccccc1F | – | 0.731
COc1ccccc1C1CN(CCNC(=O)CCn2c(=O)[nH]c3ccccc32)Cc2ccccc2O1 (centres undefined) | – | 0.942
CSc1ccccc1OCc1cc(C(=O)N2CCN(Cc3nccn3C)CC2)no1 | 0.807 | –
CN(Cc1cccs1)C(=O)c1cc(NC(=O)CC2CCCC2)cc2nc(C3CCCO3)n(C)c12 (centres undefined) | – | 0.714
CCn1ccnc1CN(C)C(=O)CC(c1ccccc1)c1ccccc1Cl (centres undefined) | 0.421 | –

Another view of some results above.
CSc1ccccc1OCc1cc(C(=O)N2CCN(Cc3nccn3C)CC2)no1
  bacterial growth OD600 (polymyxin B 1 µg/mL): 0.807
CN(Cc1cccs1)C(=O)c1cc(NC(=O)CC2CCCC2)cc2nc(C3CCCO3)n(C)c12 (centres undefined)
  bacterial growth OD600 (polymyxin B 0.75 µg/mL): 0.714

— the supplement of paper PMC12889115
